Laboratory results published in the supplement of paper PMC11542785.
Where a name gives a salt, the structure may show the parent alone. The list shows a part of the results. Many values rest on one well or one pass, so single values are uncertain.

Test system: Drosophila melanogaster DPAGT1 (Alg7) RNAi eye model
Assay: eye size Z-score vs DMSO-treated DPAGT1 model flies; higher = larger eye (suppression of DPAGT1 phenotype)
Conditions: 5 uM

Structure (SMILES)	eye size Z-score	eye size Z-score (female)
NC[C@H]1O[C@H](O[C@H]2[C@H](O[C@@H]3O[C@H](CO)[C@@H](O)[C@H]3O)[C@@H](O)[C@H](N)C[C@@H]2N)[C@H](N)[C@@H](O)[C@@H]1O [Ribostamycin sulfate salt]	0.15	
Cc1ccc(C(=O)c2cc(O)c(O)c([N+](=O)[O-])c2)cc1 [Tolcapone]	-0.06	
COc1ccc2[nH]cc(CCNC(C)=O)c2c1 [Melatonin]	2.38	
CCCCS(=O)(=O)N[C@@H](Cc1ccc(OCCCCC2CCNCC2)cc1)C(=O)O [Tirofiban hydrochloride]	-0.21	
COc1cc2nc(N3CCN(C(=O)c4ccco4)CC3)nc(N)c2cc1OC [Prazosin hydrochloride]	0.36	
CCn1cc(C(=O)O)c(=O)c2cnc(N3CCNCC3)nc21 [Pipemidic acid]	0.6	
COc1nc(C)nc(Cl)c1NC1=NCCN1 [Moxonidine]	-0.03	
CCC(C)C(C(=O)OCC[N+](C)(CC)CC)c1ccccc1 (configuration not stated) [Valethamate bromide]		0.33
Cc1ccc(S(=O)(=O)NC(=O)NN2CC3CCCC3C2)cc1 (configuration not stated) [Gliclazide]	0.48	
CC(=O)N[C@@H](CC(=O)N[C@@H](CCC(=O)O)C(=O)O)C(=O)O [Spaglumic acid]	0.75	
C#CCN(C)Cc1ccccc1 [Pargyline hydrochloride]	0.75	
COc1ccc2cc(CCC(C)=O)ccc2c1 [Nabumetone]		-1.41
C[C@H]1[C@@H](O)O[C@@H]2O[C@@]3(C)CC[C@H]4[C@H](C)CC[C@@H]1[C@@]24OO3 [Artenimol]	-1.18	
CCn1cc(C(=O)O)c(=O)c2ccc(C)nc21 [Nalidixic acid sodium salt]	-0.08	
CCN(CC)CCNC(=O)c1cc(S(C)(=O)=O)ccc1OC [Tiapride hydrochloride]	-0.17	
O=C(CCCN1CC=C(n2c(=O)[nH]c3ccccc32)CC1)c1ccc(F)cc1 [Droperidol]	0.75	
CC1(C)OC(=O)NC1=O [Dimethadione]	-1.26	
N=C(N)NCC1COC2(CCCCC2)O1 (configuration not stated) [Guanadrel sulfate]	0.16	
Cn1nnnc1SCC1=C(C(=O)O)N2C(=O)[C@@H](NC(=O)[C@H](O)c3ccccc3)[C@H]2SC1 [Cefamandole sodium salt]	0.82	
CCC[C@H](N[C@@H](C)C(=O)N1[C@H](C(=O)O)C[C@@H]2CCCC[C@@H]21)C(=O)OCC [Perindopril]	0.34	
COc1ccc(NS(=O)(=O)c2ccc(N)cc2)nn1 [Sulfamethoxypyridazine]	0.13	
Nc1ccc(S(=O)(=O)c2ccc(N)cc2)cc1 [Dapsone]	0.94	
OCCN1CCN(CCCN2c3ccccc3Sc3ccc(Cl)cc32)CC1 [Perphenazine]	0.67	
CN(C)CCc1c[nH]c2ccc(Cn3cncn3)cc12 [Rizatriptan benzoate]	0	

A draw from above in order of count of non-hydrogen atoms, descending:
Structure (SMILES)	eye size Z-score	eye size Z-score (female)
CCC[C@H](N[C@@H](C)C(=O)N1[C@H](C(=O)O)C[C@@H]2CCCC[C@@H]21)C(=O)OCC [Perindopril]	0.34	
COc1ccc2cc(CCC(C)=O)ccc2c1 [Nabumetone]		-1.41
CC1(C)OC(=O)NC1=O [Dimethadione]	-1.26	

(more compounds)

Structure (SMILES)	eye size Z-score	eye size Z-score (female)
C=C1C[C@H]2[C@@H]3C=C(C)C4=CC(=O)CC[C@]4(C)[C@H]3CC[C@]2(C)[C@@]1(OC(C)=O)C(C)=O [Melengestrol acetate]	1.18	
CC(=O)Oc1cccc2c1C(=O)c1c(OC(C)=O)cc(C(=O)O)cc1C2=O [Diacerein]	-0.3	
CN1CCCCC1CCN1c2ccccc2Sc2ccc([S+](C)[O-])cc21 (configuration not stated) [Mesoridazine besylate]	0.61	
NC(=O)N/N=C/c1ccc([N+](=O)[O-])o1 [Nitrofural]	-0.01	
CN(C)CCC[C@@]1(c2ccc(F)cc2)OCc2cc(C#N)ccc21 [Escitalopram oxalate]	-1.48	
CCCC(=O)Nc1ncnc2c1ncn2[C@@H]1O[C@@H]2COP(=O)(O)O[C@H]2[C@H]1OC(=O)CCC [Bucladesine sodium salt]	-0.3	
CN1CCCC(n2nc(Cc3ccc(Cl)cc3)c3ccccc3c2=O)CC1 (configuration not stated) [Azelastine hydrochloride]	-1.08	
CCN1CCN(C(=O)N[C@@H](C(=O)N[C@@H]2C(=O)N3[C@@H]2SC(C)(C)[C@@H]3C(=O)O)c2ccccc2)C(=O)C1=O [Piperacillin sodium salt]	1.21	
CO[C@@H]1[C@@H](OC(N)=O)[C@@H](O)[C@H](Oc2ccc3c(O)c(NC(=O)c4ccc(O)c(CC=C(C)C)c4)c(=O)oc3c2C)OC1(C)C [Novobiocin sodium salt]	0.2	
CC(C)(C)NC[C@H](O)COc1nsnc1N1CCOCC1 [Timolol maleate salt]	-0.14	
O=C(Nc1cccc2c(=O)cc(-c3nnn[nH]3)oc12)c1ccc(OCCCCc2ccccc2)cc1 [Pranlukast]	-0.16	
CCOC(=O)[C@H](CCc1ccccc1)N[C@H]1CCc2ccccc2N(CC(=O)O)C1=O [Benazepril hydrochloride]	-0.2	
COC1=C(OC)C(=O)C(CCCCCCCCCCO)=C(C)C1=O [Idebenone]	0.93	
CCOC(=O)OC(C)OC(=O)[C@@H]1N2C(=O)[C@@H](NC(=O)[C@H](N)c3ccccc3)[C@H]2SC1(C)C (some centres not stated) [Bacampicillin hydrochloride]	0.32	
COc1ccc(CN(CCN(C)C)c2ccccn2)cc1 [Pyrilamine maleate]	-0.28	
CCCNC(C)C(=O)Nc1ccccc1C (configuration not stated) [Prilocaine hydrochloride]	-0.36	
CC(COc1ccccc1)N(CCCl)Cc1ccccc1 (configuration not stated) [Phenoxybenzamine hydrochloride]	-0.52	
COc1cc(/C=C/C(=O)N2CCN(CC(=O)N3CCCC3)CC2)cc(OC)c1OC [Cinepazide maleate]	-0.25	
CC(=O)c1ccc(S(=O)(=O)NC(=O)NC2CCCCC2)cc1 [Acetohexamide]	-0.12	
C[C@H](CCc1ccccc1)NC[C@H](O)c1ccc(O)c(C(N)=O)c1 [Dilevalol]	0.02	
CCCCC[C@H](O)/C=C/[C@@H]1[C@@H](C/C=C\CCCC(=O)O)[C@@H](O)C[C@H]1O [Dinoprost trometamol]	0.56	
CCOC(=O)c1ccc(OC(=O)CCCCCNC(=N)N)cc1 [Gabexate mesilate]		1.09
O=C(NC1CCN(CCCCC2(C(=O)NCC(F)(F)F)c3ccccc3-c3ccccc32)CC1)c1ccccc1-c1ccc(C(F)(F)F)cc1 [Lomitapide]	0.39	
